According to paper PMC10711657:
No constants are given. Whether binding was seen depends on the method and setting. In cells and extracts the contact can be indirect. These calls come from enrichment with a bait or labelling near it, and not all partners need be listed. For some assays here: A no says only that the protein was not detected with the bait.

Protein sequences, listed by entry. Tags and fused reporters are not part of them. Lines headed by an entry give the natural chain unless they say otherwise; changes in a name come on top.
UniProt O88398: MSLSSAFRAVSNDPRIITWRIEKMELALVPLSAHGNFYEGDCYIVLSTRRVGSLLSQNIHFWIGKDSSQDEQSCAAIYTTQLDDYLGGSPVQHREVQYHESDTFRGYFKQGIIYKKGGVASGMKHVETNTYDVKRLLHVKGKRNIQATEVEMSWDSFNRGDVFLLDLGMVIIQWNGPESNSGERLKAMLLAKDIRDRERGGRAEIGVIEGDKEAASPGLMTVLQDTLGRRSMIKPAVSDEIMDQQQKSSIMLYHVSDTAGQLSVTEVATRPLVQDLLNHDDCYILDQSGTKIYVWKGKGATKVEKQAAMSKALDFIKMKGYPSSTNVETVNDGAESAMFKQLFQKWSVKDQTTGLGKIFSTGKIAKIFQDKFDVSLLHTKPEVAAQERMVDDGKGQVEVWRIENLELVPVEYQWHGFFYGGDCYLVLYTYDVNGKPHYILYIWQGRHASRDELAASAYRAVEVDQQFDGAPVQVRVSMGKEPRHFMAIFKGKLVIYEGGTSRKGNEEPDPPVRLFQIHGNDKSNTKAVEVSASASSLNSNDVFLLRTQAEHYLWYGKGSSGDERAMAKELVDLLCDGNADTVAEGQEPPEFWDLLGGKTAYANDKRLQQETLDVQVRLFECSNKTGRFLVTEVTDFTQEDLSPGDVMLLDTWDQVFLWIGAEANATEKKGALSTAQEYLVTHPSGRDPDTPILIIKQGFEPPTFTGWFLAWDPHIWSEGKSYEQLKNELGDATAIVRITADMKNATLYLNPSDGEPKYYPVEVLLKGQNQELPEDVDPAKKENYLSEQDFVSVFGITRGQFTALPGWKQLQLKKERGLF
UniProt Q9UQB8: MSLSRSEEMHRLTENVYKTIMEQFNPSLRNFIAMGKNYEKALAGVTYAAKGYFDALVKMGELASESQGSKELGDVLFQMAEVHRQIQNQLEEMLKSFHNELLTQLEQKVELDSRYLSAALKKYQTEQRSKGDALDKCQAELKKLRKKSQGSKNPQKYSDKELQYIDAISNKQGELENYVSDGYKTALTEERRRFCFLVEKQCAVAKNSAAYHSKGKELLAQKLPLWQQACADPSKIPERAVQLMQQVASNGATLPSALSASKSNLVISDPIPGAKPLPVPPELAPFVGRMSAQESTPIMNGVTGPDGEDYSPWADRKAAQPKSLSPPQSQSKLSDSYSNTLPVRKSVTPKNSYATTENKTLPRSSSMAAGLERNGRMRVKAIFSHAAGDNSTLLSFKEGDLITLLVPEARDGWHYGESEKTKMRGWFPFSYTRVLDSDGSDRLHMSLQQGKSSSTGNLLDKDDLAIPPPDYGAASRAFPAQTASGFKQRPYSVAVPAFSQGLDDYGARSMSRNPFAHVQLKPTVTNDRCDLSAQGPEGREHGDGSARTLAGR
UniProt P13020: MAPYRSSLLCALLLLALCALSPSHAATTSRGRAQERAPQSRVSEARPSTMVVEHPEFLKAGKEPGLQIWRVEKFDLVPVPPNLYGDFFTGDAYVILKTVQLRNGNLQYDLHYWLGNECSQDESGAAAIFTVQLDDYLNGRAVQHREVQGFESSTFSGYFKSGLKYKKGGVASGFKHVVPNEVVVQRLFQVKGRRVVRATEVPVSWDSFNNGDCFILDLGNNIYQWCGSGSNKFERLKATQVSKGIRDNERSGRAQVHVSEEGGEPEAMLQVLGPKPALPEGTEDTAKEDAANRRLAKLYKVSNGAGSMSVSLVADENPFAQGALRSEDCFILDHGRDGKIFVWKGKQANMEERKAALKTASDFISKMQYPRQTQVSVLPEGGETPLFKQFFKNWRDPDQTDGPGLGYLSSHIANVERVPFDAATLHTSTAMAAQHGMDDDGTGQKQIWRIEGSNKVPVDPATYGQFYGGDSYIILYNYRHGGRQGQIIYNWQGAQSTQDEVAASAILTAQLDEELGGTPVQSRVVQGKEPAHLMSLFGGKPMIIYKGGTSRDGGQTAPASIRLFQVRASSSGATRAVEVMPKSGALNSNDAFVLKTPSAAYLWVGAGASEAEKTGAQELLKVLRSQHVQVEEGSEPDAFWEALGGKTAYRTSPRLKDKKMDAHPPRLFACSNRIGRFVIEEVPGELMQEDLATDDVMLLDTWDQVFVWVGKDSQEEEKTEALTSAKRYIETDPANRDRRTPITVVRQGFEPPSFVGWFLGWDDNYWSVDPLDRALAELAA
UniProt Q3UU96: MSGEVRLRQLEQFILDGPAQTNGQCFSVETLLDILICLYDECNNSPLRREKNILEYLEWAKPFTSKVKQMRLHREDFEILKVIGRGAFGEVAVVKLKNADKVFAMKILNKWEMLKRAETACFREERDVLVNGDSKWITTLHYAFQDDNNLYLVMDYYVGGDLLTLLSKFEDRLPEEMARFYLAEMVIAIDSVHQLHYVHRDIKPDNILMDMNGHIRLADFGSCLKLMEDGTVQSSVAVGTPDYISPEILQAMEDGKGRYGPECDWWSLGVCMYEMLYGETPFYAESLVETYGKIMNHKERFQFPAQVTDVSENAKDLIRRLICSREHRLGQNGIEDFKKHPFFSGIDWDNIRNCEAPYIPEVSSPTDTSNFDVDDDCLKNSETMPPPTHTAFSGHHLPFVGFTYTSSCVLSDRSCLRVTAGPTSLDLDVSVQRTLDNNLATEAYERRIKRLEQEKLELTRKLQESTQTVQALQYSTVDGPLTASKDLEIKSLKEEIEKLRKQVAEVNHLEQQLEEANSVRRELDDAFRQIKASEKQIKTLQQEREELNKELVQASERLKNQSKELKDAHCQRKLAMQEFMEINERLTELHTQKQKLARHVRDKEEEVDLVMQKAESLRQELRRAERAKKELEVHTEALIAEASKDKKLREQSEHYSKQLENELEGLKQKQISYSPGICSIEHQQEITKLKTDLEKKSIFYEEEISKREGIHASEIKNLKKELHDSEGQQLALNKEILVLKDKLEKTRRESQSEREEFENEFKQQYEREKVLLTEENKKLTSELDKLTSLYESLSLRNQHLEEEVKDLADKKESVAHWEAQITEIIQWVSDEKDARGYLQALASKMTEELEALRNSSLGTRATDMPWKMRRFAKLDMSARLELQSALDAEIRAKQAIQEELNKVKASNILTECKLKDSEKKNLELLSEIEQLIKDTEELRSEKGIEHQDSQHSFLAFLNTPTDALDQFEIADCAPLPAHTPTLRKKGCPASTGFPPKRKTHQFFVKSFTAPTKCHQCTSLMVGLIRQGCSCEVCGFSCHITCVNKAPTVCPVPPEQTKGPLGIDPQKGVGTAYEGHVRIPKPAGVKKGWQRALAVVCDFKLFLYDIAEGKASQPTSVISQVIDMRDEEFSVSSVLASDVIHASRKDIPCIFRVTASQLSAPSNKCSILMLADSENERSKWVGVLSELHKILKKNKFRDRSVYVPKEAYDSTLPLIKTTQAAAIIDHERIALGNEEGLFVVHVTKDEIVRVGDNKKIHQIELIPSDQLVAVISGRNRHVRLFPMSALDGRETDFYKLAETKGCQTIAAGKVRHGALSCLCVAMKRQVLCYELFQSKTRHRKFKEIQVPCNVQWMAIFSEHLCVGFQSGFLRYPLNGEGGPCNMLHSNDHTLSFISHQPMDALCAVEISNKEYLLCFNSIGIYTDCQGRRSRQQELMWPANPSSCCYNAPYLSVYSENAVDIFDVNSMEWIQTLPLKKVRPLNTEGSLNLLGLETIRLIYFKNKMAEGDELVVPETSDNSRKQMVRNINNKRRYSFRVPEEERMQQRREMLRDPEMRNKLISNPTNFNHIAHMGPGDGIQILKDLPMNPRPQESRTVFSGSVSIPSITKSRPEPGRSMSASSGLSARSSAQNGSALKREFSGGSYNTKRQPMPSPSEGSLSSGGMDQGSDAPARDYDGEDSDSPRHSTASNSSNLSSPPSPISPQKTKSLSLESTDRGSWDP
UniProt Q9D898: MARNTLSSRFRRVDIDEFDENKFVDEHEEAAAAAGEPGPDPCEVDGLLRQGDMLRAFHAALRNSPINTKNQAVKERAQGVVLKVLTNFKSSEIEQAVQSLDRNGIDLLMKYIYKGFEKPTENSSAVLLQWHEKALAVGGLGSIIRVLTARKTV
UniProt Q61879: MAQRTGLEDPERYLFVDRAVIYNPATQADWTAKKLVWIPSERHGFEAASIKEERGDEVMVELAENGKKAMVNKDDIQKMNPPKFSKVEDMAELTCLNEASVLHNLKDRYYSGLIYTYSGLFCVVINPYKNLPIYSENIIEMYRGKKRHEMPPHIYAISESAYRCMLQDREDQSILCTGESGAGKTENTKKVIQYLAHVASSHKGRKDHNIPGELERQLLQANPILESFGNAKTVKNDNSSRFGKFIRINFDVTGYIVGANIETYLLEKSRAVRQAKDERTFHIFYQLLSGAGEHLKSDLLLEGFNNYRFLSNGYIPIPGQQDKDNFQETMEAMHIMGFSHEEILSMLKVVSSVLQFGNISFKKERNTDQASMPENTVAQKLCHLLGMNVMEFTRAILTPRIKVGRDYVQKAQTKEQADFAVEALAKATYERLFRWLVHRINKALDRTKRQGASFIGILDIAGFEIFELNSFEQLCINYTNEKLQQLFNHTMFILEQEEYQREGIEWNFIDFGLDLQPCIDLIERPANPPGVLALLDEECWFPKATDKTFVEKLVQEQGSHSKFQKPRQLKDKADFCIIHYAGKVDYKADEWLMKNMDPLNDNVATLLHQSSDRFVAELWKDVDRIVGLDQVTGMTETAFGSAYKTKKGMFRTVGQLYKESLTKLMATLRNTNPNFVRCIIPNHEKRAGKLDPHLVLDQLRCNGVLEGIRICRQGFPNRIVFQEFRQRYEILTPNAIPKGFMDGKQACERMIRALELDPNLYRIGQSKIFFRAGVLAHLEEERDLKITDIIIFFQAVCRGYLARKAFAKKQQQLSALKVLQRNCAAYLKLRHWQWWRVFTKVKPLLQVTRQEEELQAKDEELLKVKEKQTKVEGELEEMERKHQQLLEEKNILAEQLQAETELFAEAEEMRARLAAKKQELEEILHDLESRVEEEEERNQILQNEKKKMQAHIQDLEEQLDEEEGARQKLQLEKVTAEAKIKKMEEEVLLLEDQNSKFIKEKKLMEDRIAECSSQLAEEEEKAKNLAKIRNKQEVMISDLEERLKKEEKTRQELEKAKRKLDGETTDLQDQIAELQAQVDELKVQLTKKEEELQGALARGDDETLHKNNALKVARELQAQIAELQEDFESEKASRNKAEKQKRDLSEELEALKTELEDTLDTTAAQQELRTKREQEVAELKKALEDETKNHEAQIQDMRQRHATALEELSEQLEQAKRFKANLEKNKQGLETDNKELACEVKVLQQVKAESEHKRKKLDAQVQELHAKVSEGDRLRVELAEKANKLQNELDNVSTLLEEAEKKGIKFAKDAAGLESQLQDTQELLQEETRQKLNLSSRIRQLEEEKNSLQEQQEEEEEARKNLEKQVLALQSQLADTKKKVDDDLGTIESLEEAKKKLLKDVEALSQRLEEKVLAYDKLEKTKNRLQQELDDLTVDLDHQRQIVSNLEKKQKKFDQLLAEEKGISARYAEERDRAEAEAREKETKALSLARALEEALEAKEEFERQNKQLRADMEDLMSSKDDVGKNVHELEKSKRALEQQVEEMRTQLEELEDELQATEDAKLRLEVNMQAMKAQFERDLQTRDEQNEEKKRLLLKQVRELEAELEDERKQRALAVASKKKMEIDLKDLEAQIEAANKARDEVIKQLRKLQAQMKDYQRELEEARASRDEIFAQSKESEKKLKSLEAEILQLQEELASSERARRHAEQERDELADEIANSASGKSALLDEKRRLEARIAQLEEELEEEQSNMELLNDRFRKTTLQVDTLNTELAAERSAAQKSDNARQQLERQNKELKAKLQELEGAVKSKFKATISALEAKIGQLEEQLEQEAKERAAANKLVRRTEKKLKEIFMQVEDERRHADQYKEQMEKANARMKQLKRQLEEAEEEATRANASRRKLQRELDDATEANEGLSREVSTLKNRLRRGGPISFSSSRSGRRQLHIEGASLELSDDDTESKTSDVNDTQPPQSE
UniProt Q8BKX1: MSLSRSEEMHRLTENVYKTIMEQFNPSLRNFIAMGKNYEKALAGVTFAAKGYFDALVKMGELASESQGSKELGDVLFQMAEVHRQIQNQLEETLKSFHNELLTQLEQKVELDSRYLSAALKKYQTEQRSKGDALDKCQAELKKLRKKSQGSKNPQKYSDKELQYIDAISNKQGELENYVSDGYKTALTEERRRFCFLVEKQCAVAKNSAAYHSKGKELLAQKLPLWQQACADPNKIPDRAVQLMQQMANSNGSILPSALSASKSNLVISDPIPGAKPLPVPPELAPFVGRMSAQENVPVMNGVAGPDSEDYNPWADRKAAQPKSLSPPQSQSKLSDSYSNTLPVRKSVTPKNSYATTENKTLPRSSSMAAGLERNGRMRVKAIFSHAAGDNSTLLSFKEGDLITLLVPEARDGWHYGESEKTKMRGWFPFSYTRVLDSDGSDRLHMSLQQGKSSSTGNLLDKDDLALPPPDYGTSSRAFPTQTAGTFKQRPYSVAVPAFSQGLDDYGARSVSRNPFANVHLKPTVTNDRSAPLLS

The substances below were run against GFP‐Eps8‐wild type (WT) (mouse (primer names: mEps8)) (UniProt Q08509) (assay: condition: only cells treated with 50 μM CK-666 for 1 h; affinity purification with mass spectrometry; as a2, the sample of cells treated with 50 μM CK-666 for 1 h, compared directly with the nontreated (DMSO) sample).
With “advillin (Avil) (from UniProt O88398 1-819)” the binding was “no binding”.

These substances were tested against IRSp53‐EGFP (UniProt Q9UQB8) (assay: affinity purification with mass spectrometry; whole-cell GFP-trap pull-down of IRSp53-EGFP bait from transfected CAD cells treated with DMSO or 50 μM CK-666 for 1 h; on-bead digestion, LC-MS/MS; hits against cytosolic GFP-expressing cells; five preparations).
In the case of Arpc1b (from UniProt Q9WV32 1-372), the binding is reported as “binds”. In the case of Myh3 (from UniProt P13541 1-1940), the binding is reported as “binds”. In the case of “profilin (Pfn1) (from UniProt P62962 1-140)”, the binding is reported as “binds”. In the case of gelsolin (Gsn) (from UniProt P13020), the binding is reported as “binds”. For Enah (from UniProt Q03173 1-802), the binding was “binds”. With Sptbn5 (from UniProt A0A571BF02 1-3624) the binding was “binds”.

These substances were tested against GFP‐Eps8‐wild type (WT) (mouse (primer names: mEps8)) (UniProt Q08509) (assay: affinity purification with mass spectrometry; whole-cell GFP-trap pull-down of GFP-Eps8-WT bait from transfected CAD cells treated with DMSO or 50 μM CK-666 for 1 h; on-bead digestion, LC-MS/MS; hits against cytosolic GFP-expressing cells; three preparations).
For Arpc1b (from UniProt Q9WV32 1-372), the binding was “binds”. For gelsolin (Gsn) (from UniProt P13020), the binding was “binds”. With Myo6 (from UniProt Q64331 1-1262) the binding was “binds”. With “Cdc42bpa (MRCKα) (from UniProt Q3UU96 1-1719)” the binding was “binds”. Arpc5l (from UniProt Q9D898 1-153) was tested, and the binding was “binds”. With Myh11 (from UniProt O08638 1-1972) the binding was “binds”. For “advillin (Avil) (from UniProt O88398 1-819)”, the binding was “binds”. Myo5b (from UniProt P21271 1-1818) was tested, and the binding was “binds”. For Myh10 (from UniProt Q61879 1-1976), the binding was “binds”. “IRSp53 (insulin receptor tyrosine kinase substrate protein of 53 kDa) (from UniProt Q8BKX1 1-535)” was tested, and the binding was “binds”. In the case of Myo1c (from UniProt Q9WTI7 1-1063), the binding is reported as “binds”. With “eplin (Lima 1) (from UniProt Q9ERG0 1-753)” the binding was “binds”. In the case of Myo5a (from UniProt Q99104 1-1853), the binding is reported as “binds”.
